Measurements taken from the supplement of paper PMC7024190.
This is one part of the list. Single values are uncertain here, since repeats match poorly.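 Human embryonic kidney cells were transiently transfected with a plasmid bearing a Renilla luciferase gene under the HSV-TK promoter. This first-round screen tests roughly ten thousand compounds for ones that increase reporter output.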

The compounds below were run on HEK 293FT (assay: log relative Renilla luciferase luminescence (reporter expression vs reference, reference not stated) (log (base not stated)); higher = higher recombinant reporter expression). Details: 10 µM; time after transfection 48 h.
Method: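 HEK 293FT cells transiently transfected with pRL-TK (Renilla luciferase) were treated with compounds at 10 uM and luminescence was read about 42 h later. Values are log relative Renilla luminescence (log base and reference not stated). Single-pass screen; 2080 natural products library.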
In the case of `C=C1C/C(=C/C)C(=O)O[C@@H]2CCN3CC=C(COC(=O)[C@]1(C)O)[C@H]23` [Seneciphylline], the log was 0.0949. Compound `O=C1C=CC[C@@H]2[C@H]3CCC[N@+]4([O-])CCC[C@@H](CN12)[C@@H]34` [Sophocarpidine] has a log of -0.125. In the case of `C=C[C@]12CN(C)[C@@H]3[C@H]4CO[C@H](C[C@H]41)[C@]1(C(=O)N(OC)c4ccccc41)[C@@H]32` [Gelsevirine], the log was 0.0156. With `C=C[C@@]12CN(C)[C@H]3C[C@]14C(=Nc1ccccc14)[C@@H]1C[C@@H]2[C@@H]3CO1` [Koumine] the log was -0.108. `COc1cc(O)cc(/C=C/c2ccc(O)cc2)c1` [Pinostilbene] was tested, and the log was -0.267. `COC(=O)C1=C2Nc3c(O)cccc3[C@@]23CCN2C[C@@H]([C@H](C)O)[C@@H]1C[C@H]23` [Scholaricine] gave a log of 0.0337. In the case of `Oc1cc(O)cc(/C=C/c2ccc(O)cc2O)c1` [Oxyresveratrol], the log was 0.0292. `C=C1[C@@H](O)[C@]2(O)OC[C@]34[C@H]2[C@@]2(C)[C@H](O)C(=O)C=C(C)[C@@H]2C[C@H]3OC(=O)C[C@@H]14` [Ailanthone] was tested, and the log was -1.55. In the case of `COC(=O)C1=CO[C@@H](C)[C@@H]2CN3CC[C@@]4(C(=O)Nc5cc(OC)ccc54)[C@H]3C[C@H]12` [Vineridine], the log was 0.0164. Compound `COc1ccc2c3c([nH]c2c1)C(C)=NCC3` [Harmaline] has a log of -0.225. Compound `CC(C)(O)[C@@H]1[C@@H]2C[C@]3(C)[C@@](O)([C@H]4O[C@H]4[C@]34CO4)[C@H]1C(=O)O2` [Coriatin] has a log of 0.176. Compound `O=C1C=CC[C@@H]2[C@H]3CCCN4CCC[C@@H](CN12)[C@@H]34` [Sophocarpine] has a log of -0.0633. `CC(C)C1CCC2(C)C3CC(O)C45CCCC4C2(CCC(=O)C2(C)COC4(C)CCC2O4)C1N5C3` (stereo not given) [11-Hydroxycodaphniphylline] showed a log of -0.401. `C/C=C1/CN2[C@@H]3C[C@@]45c6ccccc6N[C@]4(O3)[C@@H]2C[C@@H]1[C@@]5(C=O)C(=O)OC` [Picralinal] was tested, and the log was -0.152. `CC(C)[C@]12C=C3CC[C@H]4[C@](C)(C(=O)O)CCC[C@]4(C)[C@@]3(CC1)OO2` [9,13-Epidioxy-8(14)-abieten-18-oic acid] was tested, and the log was -0.251. Compound `CCC12C=CCN3CC[C@@]4(c5ccc(OC)cc5N(C)[C@H]4[C@@](O)(C(=O)OC)[C@@H]1OC(C)=O)[C@@H]32` (stereo not given in full) [Vindoline] has a log of 0.0852. With `C/C=C1/C[N@+]2(C)CC[C@@]34c5ccccc5N[C@]32[C@@H](O)C[C@@H]1[C@@]4(CO)C(=O)OC` [Echitamine] the log was -0.0313. With `CC(=O)O[C@@H]1[C@H]2[C@H]3C[C@H]4C5=Nc6ccccc6[C@]51C[C@@H]2N4[C@H](C)C3C=O` (stereo not given in full) [Perakine] the log was 0.0378. With `C=C[C@]12CN(C)[C@@H]3[C@H]4CO[C@H](C[C@H]41)[C@]1(C(=O)Nc4ccccc41)[C@@H]32` [Gelsemine] the log was -0.744. For `CC(C)(O)C1C2OC(=O)C1C1(O)C3OC3C3(CO3)C1(C)C2O` (stereo not given) [Isohyenanchin], the log was 0.148. `C=C[C@@H](O)C#CC#C[C@@H](O)/C=C\CCCCCCC` [Falcarindiol] gave a log of -0.0445. With `O=c1cccc2n1CC1CCCN3CCCC2C13` (stereo not given) [Neosophoramine] the log was -0.0508. `C=C(C)C1C2OC(=O)C1C1(O)C3OC3C3(CO3)C1(C)C2OC(C)=O` (stereo not given) [2-O-Acetyltutin] gave a log of 0.209. `CC1(C)C(=O)C=C[C@@]2(C)C1=C(O)C(=O)[C@]1(C)[C@@H]2[C@@H](O)C[C@@]2(C)[C@H](c3ccoc3)C[C@H]3O[C@]321` [11beta-Hydroxycedrelone] showed a log of -0.0758. `CC1(C)CCC[C@@]2(C)C1=C(O)C(=O)c1c(O)c3c(c(O)c12)O[C@@H](CO)C3` [Villosin C] showed a log of -0.0428. `C=CC(C)(C)c1[nH]c2c(CC=C(C)C)cc(CC=C(C)C)cc2c1C[C@@H]1NC(=O)[C@H](C)NC1=O` [Echinulin] showed a log of 0.0732. Work on `O=c1ccc2cc3ccoc3c(O)c2o1` [Xanthotoxol] yielded a log of -0.0512. For `CCC1CN2CCc3c([nH]c4ccccc34)C2CC1C(CO)C(=O)OC` [(16R)-Dihydrositsirikine], the log was -0.00908. For `CC(=O)O[C@H]1C(=O)[C@@]2(C)[C@H]([C@H](OC(=O)c3ccccc3)[C@]3(O)C[C@H](O)C(C)=C1C3(C)C)[C@]1(OC(C)=O)CO[C@@H]1C[C@@H]2O` [Baccatin III], the log was -0.505. In the case of `COc1ccc2c(c1OC)CC1c3c(cc4c(c3-2)OCO4)CCN1C` (stereo not given) [Crebanine], the log was -0.0581. `COC(=O)C1=CO[C@@H](C)[C@@H]2CN3CC[C@@]4(C(=O)Nc5cc(OC)ccc54)[C@@H]3C[C@H]12` [Caboxine A] showed a log of -0.195. Compound `O=C1CCC[C@@H]2[C@H]3C[C@@H](CN12)[C@@H]1CCCCN1C3` [Lupanine] has a log of -0.158. For `COc1cccc2c1C[C@@H]1c3c(cc4c(c3-2)OCO4)CCN1C` [Stephanine], the log was -0.0264. Work on `COC(=O)C1=COC(C)C2CN3CCC4(C(=O)Nc5cc(OC)c(OC)cc54)C3CC12` (stereo not given) [Isocarapanaubine] yielded a log of 0.0924. Work on `CC(=O)OC12COC1CC(O)C1(C)C(=O)C(O)C3=C(C)C(O)CC(O)(C(OC(=O)c4ccccc4)C21)C3(C)C` (stereo not given) [10-Deacetylbaccatin III] yielded a log of 0.0468. In the case of `O=C1CCC[C@@H]2[C@H]3CCCN4CCC[C@H](CN12)[C@@H]34` [Sophoridine], the log was -0.108. Compound `COc1ccc([C@@]23Oc4cc(OC)cc(OC)c4[C@]2(O)[C@H](O)C[C@H]3c2ccccc2)cc1` [Rocaglaol] has a log of -0.805. For `CC(C)[C@@H](C)/C=C/[C@@H](C)[C@H]1CC[C@@H]2[C@]1(C)CC[C@H]1[C@]23C=C[C@]2(C[C@@H](O)CC[C@]12C)OO3` [Ergosterol peroxide], the log was -0.0411. Work on `CC(C)=CCOc1c2occc2cc2ccc(=O)oc12` [Imperatorin] yielded a log of -0.0495. `C=C1C/C(=C/C)C(=O)O[C@@H]2CC[N+]3([O-])CC=C(COC(=O)[C@]1(C)O)[C@H]23` (stereo not given in full) [Seneciphylline N-oxide] showed a log of 0.145.
